According to patent US20210308102A1 (priority 2018, published 2021):
For at least one compound, name, drawing or mass did not settle the structure.

Columns and labels:
Presbyopic subjects [1] = conditions: human, in vivo
Presbyopic subjects [2] = conditions: human, in vivo; remark: listed apart in the source
[3] = cited from earlier work

Structure (SMILES) | miosis (pupil size, FIG. 1) (Presbyopic subjects [1]) | distance corrected near visual acuity (FIG. 2) (Presbyopic subjects [2]) | Acting Duration [3] [h]
CNC(=O)Oc1ccc2c(c1)[C@]1(C)CCN(C)[C@@H]1N2C [compound 2, physostigmine] | significant miosis | improved the distance corrected near visual acuity | 
CN(C)C(=O)Oc1cccc([N+](C)(C)C)c1.COS(=O)(=O)[O-] [Neostigmine mesylsulfate] |  |  | 4 to 6
